Here are results for 29 targets from the supplement of paper PMC10849652.

The chains behind the UniProt entries cited, without tags or fusion partners. Where a name states a change or a piece, a line headed by the entry shows the natural chain unless it says otherwise.
UniProt O43543: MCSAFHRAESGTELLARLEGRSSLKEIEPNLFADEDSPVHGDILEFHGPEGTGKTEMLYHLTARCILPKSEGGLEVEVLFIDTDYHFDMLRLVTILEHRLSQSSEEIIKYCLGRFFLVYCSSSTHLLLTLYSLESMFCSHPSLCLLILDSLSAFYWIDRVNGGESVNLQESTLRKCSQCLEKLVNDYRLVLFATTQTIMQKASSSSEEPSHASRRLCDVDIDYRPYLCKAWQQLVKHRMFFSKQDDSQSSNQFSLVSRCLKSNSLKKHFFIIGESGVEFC
UniProt O43167: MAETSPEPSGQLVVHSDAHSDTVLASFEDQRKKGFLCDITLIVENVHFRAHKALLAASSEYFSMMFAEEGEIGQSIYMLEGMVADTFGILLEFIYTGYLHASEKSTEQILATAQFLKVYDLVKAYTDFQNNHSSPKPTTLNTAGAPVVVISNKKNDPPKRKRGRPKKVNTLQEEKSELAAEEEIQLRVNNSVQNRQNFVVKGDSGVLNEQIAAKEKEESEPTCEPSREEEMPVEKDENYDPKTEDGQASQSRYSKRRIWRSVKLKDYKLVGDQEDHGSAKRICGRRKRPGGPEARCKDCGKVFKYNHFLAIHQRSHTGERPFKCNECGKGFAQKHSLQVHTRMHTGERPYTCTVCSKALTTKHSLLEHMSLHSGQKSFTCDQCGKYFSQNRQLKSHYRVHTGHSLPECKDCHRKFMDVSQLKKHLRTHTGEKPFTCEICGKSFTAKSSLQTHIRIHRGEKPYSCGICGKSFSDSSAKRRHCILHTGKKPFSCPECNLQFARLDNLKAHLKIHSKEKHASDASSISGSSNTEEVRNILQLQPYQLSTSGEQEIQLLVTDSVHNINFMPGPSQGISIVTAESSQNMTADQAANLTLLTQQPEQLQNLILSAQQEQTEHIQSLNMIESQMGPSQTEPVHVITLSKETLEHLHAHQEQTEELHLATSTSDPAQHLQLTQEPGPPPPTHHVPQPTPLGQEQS
UniProt O43670: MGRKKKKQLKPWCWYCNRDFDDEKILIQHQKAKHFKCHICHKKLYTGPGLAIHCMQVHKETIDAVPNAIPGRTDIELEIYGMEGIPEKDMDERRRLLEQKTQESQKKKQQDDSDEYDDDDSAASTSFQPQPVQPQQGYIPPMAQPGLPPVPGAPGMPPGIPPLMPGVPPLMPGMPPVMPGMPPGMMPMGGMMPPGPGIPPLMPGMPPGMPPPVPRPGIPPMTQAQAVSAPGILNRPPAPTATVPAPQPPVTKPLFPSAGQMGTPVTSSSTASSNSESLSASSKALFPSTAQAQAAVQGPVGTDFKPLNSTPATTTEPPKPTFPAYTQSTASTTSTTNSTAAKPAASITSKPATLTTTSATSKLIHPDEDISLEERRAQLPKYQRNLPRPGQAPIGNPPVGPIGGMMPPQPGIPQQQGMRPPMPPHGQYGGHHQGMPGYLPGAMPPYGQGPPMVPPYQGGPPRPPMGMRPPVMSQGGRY
UniProt O96006: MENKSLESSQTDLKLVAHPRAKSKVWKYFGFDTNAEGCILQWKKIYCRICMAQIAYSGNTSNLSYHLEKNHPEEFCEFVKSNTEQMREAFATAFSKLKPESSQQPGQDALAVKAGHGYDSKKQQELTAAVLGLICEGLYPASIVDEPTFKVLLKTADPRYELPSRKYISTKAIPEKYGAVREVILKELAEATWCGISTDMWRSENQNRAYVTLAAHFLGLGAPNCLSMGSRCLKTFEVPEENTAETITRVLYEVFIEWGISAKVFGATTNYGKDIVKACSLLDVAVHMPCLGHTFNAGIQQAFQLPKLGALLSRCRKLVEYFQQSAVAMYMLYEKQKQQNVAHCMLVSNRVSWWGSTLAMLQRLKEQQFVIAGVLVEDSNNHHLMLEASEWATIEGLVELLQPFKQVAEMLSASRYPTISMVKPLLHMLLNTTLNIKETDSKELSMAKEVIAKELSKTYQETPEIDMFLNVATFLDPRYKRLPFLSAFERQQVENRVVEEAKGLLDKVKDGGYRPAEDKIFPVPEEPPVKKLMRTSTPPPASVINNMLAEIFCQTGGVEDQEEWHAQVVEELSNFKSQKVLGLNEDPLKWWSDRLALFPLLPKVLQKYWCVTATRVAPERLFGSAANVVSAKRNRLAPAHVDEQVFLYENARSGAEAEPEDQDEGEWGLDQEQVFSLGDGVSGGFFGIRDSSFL
UniProt Q8IX07: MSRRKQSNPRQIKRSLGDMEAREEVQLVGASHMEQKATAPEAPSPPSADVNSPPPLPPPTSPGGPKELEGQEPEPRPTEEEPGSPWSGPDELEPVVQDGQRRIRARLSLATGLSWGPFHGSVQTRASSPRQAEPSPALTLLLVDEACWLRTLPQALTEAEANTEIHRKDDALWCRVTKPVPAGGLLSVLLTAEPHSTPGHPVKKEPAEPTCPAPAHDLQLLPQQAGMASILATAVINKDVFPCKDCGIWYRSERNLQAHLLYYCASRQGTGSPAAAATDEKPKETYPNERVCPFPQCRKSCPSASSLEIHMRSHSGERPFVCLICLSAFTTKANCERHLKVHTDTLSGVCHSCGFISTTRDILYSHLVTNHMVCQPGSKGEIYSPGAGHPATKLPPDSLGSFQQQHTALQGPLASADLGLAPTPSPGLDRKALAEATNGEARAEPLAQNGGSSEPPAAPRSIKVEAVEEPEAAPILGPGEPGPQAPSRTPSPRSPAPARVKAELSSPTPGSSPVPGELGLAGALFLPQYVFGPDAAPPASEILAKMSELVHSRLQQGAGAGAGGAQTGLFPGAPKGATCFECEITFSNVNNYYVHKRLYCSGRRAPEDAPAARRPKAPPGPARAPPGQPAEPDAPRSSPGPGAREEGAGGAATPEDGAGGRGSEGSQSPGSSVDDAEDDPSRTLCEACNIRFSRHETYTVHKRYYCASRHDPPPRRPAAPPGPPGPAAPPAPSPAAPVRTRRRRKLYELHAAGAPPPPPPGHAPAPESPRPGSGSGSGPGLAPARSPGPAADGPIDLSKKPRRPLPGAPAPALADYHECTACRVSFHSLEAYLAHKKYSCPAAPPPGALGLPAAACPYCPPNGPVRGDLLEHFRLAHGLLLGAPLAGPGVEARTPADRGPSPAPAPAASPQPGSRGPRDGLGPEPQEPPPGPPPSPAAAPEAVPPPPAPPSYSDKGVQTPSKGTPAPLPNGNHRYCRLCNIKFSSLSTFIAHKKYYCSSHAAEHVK
UniProt Q96DT7: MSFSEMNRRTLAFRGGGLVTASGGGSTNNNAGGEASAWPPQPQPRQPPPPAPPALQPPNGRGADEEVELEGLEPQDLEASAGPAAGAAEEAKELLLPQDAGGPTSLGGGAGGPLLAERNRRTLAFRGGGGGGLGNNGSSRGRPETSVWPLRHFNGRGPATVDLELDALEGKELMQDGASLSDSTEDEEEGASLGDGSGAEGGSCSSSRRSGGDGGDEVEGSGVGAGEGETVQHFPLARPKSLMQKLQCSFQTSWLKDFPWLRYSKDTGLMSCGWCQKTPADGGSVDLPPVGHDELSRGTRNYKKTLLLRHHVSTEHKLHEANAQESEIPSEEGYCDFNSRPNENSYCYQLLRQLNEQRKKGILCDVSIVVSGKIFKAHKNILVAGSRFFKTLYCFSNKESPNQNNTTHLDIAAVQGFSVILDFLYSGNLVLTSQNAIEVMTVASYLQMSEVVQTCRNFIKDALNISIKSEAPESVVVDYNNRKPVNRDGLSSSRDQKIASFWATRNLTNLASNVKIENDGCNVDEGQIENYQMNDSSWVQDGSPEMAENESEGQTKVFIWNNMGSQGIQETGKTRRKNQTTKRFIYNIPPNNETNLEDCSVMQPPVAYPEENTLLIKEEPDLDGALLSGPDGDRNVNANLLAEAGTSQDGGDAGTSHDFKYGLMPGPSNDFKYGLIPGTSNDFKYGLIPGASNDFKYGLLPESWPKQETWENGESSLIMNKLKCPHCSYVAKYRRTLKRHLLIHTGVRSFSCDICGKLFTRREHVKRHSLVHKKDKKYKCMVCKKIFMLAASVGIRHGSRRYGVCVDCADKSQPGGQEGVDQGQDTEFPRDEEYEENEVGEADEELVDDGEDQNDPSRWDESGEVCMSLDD
UniProt O75152: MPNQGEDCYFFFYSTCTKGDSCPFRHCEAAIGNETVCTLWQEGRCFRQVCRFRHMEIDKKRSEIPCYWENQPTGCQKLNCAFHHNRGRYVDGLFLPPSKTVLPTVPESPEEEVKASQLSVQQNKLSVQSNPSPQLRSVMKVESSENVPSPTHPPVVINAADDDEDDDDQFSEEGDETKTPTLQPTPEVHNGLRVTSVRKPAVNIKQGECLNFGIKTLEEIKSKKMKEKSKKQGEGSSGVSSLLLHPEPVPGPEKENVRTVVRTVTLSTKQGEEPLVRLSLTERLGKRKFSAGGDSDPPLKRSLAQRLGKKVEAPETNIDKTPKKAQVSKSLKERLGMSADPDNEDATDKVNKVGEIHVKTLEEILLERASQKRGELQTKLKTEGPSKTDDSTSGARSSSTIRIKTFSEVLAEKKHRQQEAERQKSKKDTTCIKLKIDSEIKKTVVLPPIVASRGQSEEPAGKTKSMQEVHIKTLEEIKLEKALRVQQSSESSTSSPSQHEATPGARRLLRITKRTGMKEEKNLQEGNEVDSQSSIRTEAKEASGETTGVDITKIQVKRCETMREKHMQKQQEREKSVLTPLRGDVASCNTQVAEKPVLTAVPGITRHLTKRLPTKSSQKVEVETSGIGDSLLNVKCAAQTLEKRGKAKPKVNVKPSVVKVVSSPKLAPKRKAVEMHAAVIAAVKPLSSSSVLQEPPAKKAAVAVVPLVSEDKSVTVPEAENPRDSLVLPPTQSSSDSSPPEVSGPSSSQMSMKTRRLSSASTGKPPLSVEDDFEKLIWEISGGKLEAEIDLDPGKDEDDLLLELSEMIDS
UniProt Q5T750: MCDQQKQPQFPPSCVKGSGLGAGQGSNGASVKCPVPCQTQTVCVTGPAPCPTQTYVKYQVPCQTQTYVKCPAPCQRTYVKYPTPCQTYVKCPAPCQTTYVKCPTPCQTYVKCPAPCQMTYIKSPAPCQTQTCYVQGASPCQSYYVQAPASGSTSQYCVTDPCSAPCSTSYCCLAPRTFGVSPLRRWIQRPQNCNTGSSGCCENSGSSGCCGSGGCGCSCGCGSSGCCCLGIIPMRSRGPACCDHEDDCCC
UniProt Q9H8U3: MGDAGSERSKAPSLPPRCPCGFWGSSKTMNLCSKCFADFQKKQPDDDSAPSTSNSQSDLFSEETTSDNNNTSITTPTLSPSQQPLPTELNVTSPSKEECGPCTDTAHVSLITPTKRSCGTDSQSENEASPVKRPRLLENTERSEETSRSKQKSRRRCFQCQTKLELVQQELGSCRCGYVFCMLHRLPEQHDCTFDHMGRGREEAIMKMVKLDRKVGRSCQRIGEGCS
UniProt Q9BQ24: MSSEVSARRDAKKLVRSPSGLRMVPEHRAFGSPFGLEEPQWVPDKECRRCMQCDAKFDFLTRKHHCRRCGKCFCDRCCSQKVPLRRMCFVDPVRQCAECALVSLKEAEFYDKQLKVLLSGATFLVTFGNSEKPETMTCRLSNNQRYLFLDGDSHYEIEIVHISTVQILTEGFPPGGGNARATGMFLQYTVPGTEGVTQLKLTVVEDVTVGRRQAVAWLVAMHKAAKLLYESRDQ
UniProt Q15776: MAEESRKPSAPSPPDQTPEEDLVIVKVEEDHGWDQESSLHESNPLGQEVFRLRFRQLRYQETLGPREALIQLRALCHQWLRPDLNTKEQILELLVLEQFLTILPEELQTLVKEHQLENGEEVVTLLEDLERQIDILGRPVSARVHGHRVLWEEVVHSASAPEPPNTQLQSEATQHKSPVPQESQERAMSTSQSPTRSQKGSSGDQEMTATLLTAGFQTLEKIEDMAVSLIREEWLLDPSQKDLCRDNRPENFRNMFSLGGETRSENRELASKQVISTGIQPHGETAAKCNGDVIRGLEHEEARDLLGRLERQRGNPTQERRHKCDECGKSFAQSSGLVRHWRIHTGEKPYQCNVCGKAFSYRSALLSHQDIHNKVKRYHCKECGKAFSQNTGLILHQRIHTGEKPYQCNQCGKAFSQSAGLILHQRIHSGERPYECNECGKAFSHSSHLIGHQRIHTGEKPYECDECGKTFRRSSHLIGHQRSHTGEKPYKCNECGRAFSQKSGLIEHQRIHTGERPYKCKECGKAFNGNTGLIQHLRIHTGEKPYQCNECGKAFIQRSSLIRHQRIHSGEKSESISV
UniProt Q8TBF4: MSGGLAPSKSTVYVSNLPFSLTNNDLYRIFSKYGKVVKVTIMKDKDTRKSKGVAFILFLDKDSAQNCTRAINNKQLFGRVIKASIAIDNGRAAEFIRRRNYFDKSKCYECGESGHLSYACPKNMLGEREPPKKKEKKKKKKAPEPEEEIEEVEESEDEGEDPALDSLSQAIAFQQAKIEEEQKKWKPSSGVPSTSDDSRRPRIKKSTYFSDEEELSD
UniProt P58557: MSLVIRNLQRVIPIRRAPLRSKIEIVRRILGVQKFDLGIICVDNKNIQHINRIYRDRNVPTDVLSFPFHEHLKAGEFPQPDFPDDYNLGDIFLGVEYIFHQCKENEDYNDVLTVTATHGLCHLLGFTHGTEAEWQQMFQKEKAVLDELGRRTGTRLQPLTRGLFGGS

Some of the results follow.

Compound in one experiment: C[C@H](C1=CC=C(C=C1)C(=O)NC2=C3C=CNC3=NC=C2)N
Nature of the experiment: log2 fold change, soluble protein after heating vs DMSO (PISA); higher = thermal stabilisation; K562 cells, 10 uM, 30 min; active = over 0.2 and 3.5 SD of the protein, either way, in both replicates (recomputed). Summed up:
(§1)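 K562 cells at 2×10^6 cells/mL were given 10 μM compound for 30 min. Aliquots then went through 3 min of heating across 48°C-58°C, were pooled, and were extracted in PBS with 0.5% NP-40 at 4°C, and the supernatant after 21,000xg for 90 min was quantified by TMTpro 16plex LC-MS/MS with channel sums equalised. Thermal stability relative to control samples, from duplicates, is given as log2 fold change.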
For XRCC2 (UniProt O43543), the log2 fold change is inactive: -0.028.

ZBTB24 (UniProt O43167): the log2 fold change is inactive: 0.319.

XIRP2 isoform 8 (UniProt A4UGR9): the log2 fold change was inactive: 0.129.

As for YIPF1 (UniProt Q9Y548), the log2 fold change was inactive: -0.015.

For ZKSCAN3 (UniProt Q9BRR0), the log2 fold change is inactive: 0.24.

Regarding ZBTB14 (UniProt O43829), the log2 fold change was inactive: 0.236.

Take ZNF207 isoform 2 (UniProt O43670): the log2 fold change was inactive: -0.011.

Regarding ZBED1 (UniProt O96006), the log2 fold change is inactive: -0.28.

As for ZDHHC13 (UniProt Q8IUH4), the log2 fold change is inactive: 0.102.

For ZFPM1 (UniProt Q8IX07), the log2 fold change was inactive: -0.139.

As to ZBTB10 (UniProt Q96DT7), the log2 fold change was inactive: 0.014.

Take ZC3H11A (UniProt O75152): the log2 fold change was inactive: -0.066.

Regarding ZFYVE26 (UniProt Q68DK2), the log2 fold change was inactive: 0.05.

As to ZKSCAN4 (UniProt Q969J2), the log2 fold change was inactive: 0.186.

Turning to XP32 (UniProt Q5T750), the log2 fold change was inactive: -0.258.

Turning to ZFAND3 (UniProt Q9H8U3), the log2 fold change was inactive: -0.076.

With ZFPM2 (UniProt Q8WW38), the log2 fold change is inactive: -0.005.

Regarding YIPF2 (UniProt Q9BWQ6), the log2 fold change is inactive: -0.107.

Compound in a further experiment: C[C@H](Nc1ncnc2nc[nH]c12)c1cc2cccc(Cl)c2c(=O)n1-c1ccccc1 [duvelisib]
Described as above. Summed up: as §1
In the case of XRCC2 (UniProt O43543), the log2 fold change is inactive: 0.036.

Consider ZBTB24 (UniProt O43167), for which the log2 fold change is inactive: -0.186.

On to XIRP2 isoform 8 (UniProt A4UGR9), for which the log2 fold change was inactive: -0.086.

ZFYVE21 isoform 2 (UniProt Q9BQ24): the log2 fold change is inactive: -0.258.

As for ZBTB33 (UniProt Q86T24), the log2 fold change is inactive: 0.293.

As for ZNF106 (UniProt Q9H2Y7), the log2 fold change was inactive: 0.07.

On to ZKSCAN8 (UniProt Q15776), for which the log2 fold change is inactive: -0.234.

With ZNF207 isoform 2 (UniProt O43670), the log2 fold change is inactive: -0.023.

Take ZBED1 (UniProt O96006): the log2 fold change is inactive: 0.086.

On to ZFPM1 (UniProt Q8IX07), for which the log2 fold change was inactive: 0.051.

In the case of ZC3H11A (UniProt O75152), the log2 fold change was inactive: -0.179.

In the case of XP32 (UniProt Q5T750), the log2 fold change is inactive: -0.441.

Regarding ZFAND3 (UniProt Q9H8U3), the log2 fold change is inactive: -0.038.

Compound in the next experiment: Cc1cc(Nc2cc(CN3CCOCC3)c3nc(C)c(Cc4ccc(Cl)cc4F)n3n2)n[nH]1 [gandotinib]
Described as above. An outline of the steps:
as §1
For ZDHHC9 (UniProt Q9Y397), the log2 fold change is inactive: 0.123.

Consider ZBTB24 (UniProt O43167), for which the log2 fold change is inactive: 0.054.

XIRP2 isoform 8 (UniProt A4UGR9): the log2 fold change was inactive: 0.082.

As for ZFYVE21 isoform 2 (UniProt Q9BQ24), the log2 fold change is inactive: -0.226.

Regarding ZKSCAN8 (UniProt Q15776), the log2 fold change is inactive: 0.244.

With ZCRB1 (UniProt Q8TBF4), the log2 fold change was inactive: 0.209.

On to ZNF207 isoform 2 (UniProt O43670), for which the log2 fold change is inactive: -0.014.

For the target XPA (UniProt P23025), the log2 fold change was inactive: 0.021.

Regarding YBEY (UniProt P58557), the log2 fold change is inactive: 0.195.

In the case of ZBTB10 (UniProt Q96DT7), the log2 fold change was inactive: 0.045.

Consider ZC3H11A (UniProt O75152), for which the log2 fold change is inactive: 0.241.

Regarding XP32 (UniProt Q5T750), the log2 fold change is inactive: -0.109.

Regarding ZFAND3 (UniProt Q9H8U3), the log2 fold change is inactive: -0.042.

Regarding ZDHHC6 (UniProt Q9H6R6), the log2 fold change is inactive: -0.018.

Compound in the next experiment: Cc1cc(Nc2cc(N3CCN(C)CC3)nc(Sc3ccc(NC(=O)C4CC4)cc3)n2)n[nH]1 [tozasertib]
The experiment is described as above. Summed up: as §1
For the target ZBTB24 (UniProt O43167), the log2 fold change is inactive: -0.057.

For the target XIRP2 isoform 8 (UniProt A4UGR9), the log2 fold change is inactive: -0.083.

Turning to ZFYVE21 isoform 2 (UniProt Q9BQ24), the log2 fold change is inactive: -0.03.

On to ZKSCAN8 (UniProt Q15776), for which the log2 fold change is inactive: 0.186.

Take YIPF1 (UniProt Q9Y548): the log2 fold change is inactive: 0.039.

With ZBTB14 (UniProt O43829), the log2 fold change is inactive: -0.274.

Turning to ZNF207 isoform 2 (UniProt O43670), the log2 fold change is inactive: 0.066.

Take XPA (UniProt P23025): the log2 fold change was inactive: -0.196.

As for ZBTB7B isoform 2 (UniProt O15156), the log2 fold change is inactive: 0.061.

For the target ZBED1 (UniProt O96006), the log2 fold change was inactive: -0.003.

For ZFX isoform 3 (UniProt P17010), the log2 fold change is inactive: 0.304.

In the case of ZFPM1 (UniProt Q8IX07), the log2 fold change is inactive: -0.037.

For the target ZBTB10 (UniProt Q96DT7), the log2 fold change is inactive: -0.16.

With ZKSCAN4 (UniProt Q969J2), the log2 fold change was inactive: 0.27.

Take ZFAND3 (UniProt Q9H8U3): the log2 fold change is inactive: 0.022.

On to ZFPM2 (UniProt Q8WW38), for which the log2 fold change was inactive: 0.011.

Turning to YIPF2 (UniProt Q9BWQ6), the log2 fold change is inactive: -0.194.

Compound in another experiment: Cc1cc(SCc2sc(-c3ccc(C(F)(F)F)cc3)nc2C)ccc1OCC(=O)O
Described as above. An outline of the steps: as §1
For the target XRCC2 (UniProt O43543), the log2 fold change is inactive: 0.064.

Take ZBTB24 (UniProt O43167): the log2 fold change was inactive: -0.141.

Turning to XIRP2 isoform 8 (UniProt A4UGR9), the log2 fold change is inactive: -0.046.

ZFYVE21 isoform 2 (UniProt Q9BQ24): the log2 fold change was inactive: 0.215.

For ZBTB33 (UniProt Q86T24), the log2 fold change was inactive: -0.068.

Take ZNF106 (UniProt Q9H2Y7): the log2 fold change is inactive: -0.005.

Take ZKSCAN8 (UniProt Q15776): the log2 fold change is inactive: 0.058.

In the case of ZNF207 isoform 2 (UniProt O43670), the log2 fold change is inactive: -0.08.

On to ZBED1 (UniProt O96006), for which the log2 fold change is inactive: 0.045.

On to ZFPM1 (UniProt Q8IX07), for which the log2 fold change was inactive: -0.057.

Turning to ZC3H11A (UniProt O75152), the log2 fold change is inactive: 0.331.

For the target XP32 (UniProt Q5T750), the log2 fold change was inactive: -0.913.

Turning to ZFAND3 (UniProt Q9H8U3), the log2 fold change was inactive: -0.053.
